PubChem BioAssay AID1259424 | University of Nebraska Medical Center | 2018
Purpose: 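Find knockdowns that reproduce the expression shifts seen after KSR1 loss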 (primary screen). System: human HCT116 colon cancer cells. Reagent: siRNA pool against human genes, 50 nM. Measurement: 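Log2 levels of six mRNAs (branched-DNA multiplex), adjusted by two reference genes and the non-targeting median, then scored against the average KSR1 knockdown pattern as Pearson r and euclidean distance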. Reading the numbers: mean correlation with KSR1 profile: higher = expression change more like KSR1 knockdown.
Here is a random part of about 14,000 reagents. 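Higher correlation or smaller distance means closer resemblance to KSR1 loss; control wells, including KSR1 knockdowns, recur on many plates.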 Not all columns of the deposit are shown. No sequences are given here. Not stated in the record: the time to read-out.

For FAIM2 (GeneID 23017), what was measured?
mean correlation with KSR1 profile: -0.206

What is on record for KLF10 (GeneID 7071)?
mean correlation with KSR1 profile: -0.713

For HOPX (GeneID 84525), what was measured?
mean correlation with KSR1 profile: 0.198

With CENPU (GeneID 79682), what was measured?
mean correlation with KSR1 profile: 0.0592

What did the screen give for CAPS (GeneID 828)?
mean correlation with KSR1 profile: 0.289

What did the screen give for METTL9 (GeneID 51108)?
mean correlation with KSR1 profile: -0.0594

With USH1C (GeneID 10083), how do the results read?
mean correlation with KSR1 profile: -0.157

What is on record for NDUFA2 (GeneID 4695)?
mean correlation with KSR1 profile: -0.0522

With PSMD9 (GeneID 5715), how do the results read?
mean correlation with KSR1 profile: -0.444

For IER2 (GeneID 9592), what does the deposit list?
mean correlation with KSR1 profile: 0.0724

What is on record for IL17D (GeneID 53342)?
mean correlation with KSR1 profile: -0.0652

For EFNB1 (GeneID 1947), what does the deposit list?
mean correlation with KSR1 profile: 0.0469

Which result is listed for OSGIN2 (GeneID 734)?
mean correlation with KSR1 profile: -0.08

How did the screen score GPR135 (GeneID 64582)?
mean correlation with KSR1 profile: 0.272

With PNMA1 (GeneID 9240), how do the results read?
mean correlation with KSR1 profile: 0.515

With FNDC3A (GeneID 22862), what was measured?
mean correlation with KSR1 profile: -0.69

With ACOX1 (GeneID 51), what does the deposit list?
mean correlation with KSR1 profile: -0.463

For DUS1L (GeneID 64118), how do the results read?
mean correlation with KSR1 profile: -0.211

What is on record for GSTM2 (GeneID 2946)?
mean correlation with KSR1 profile: 0.0556

How did the screen score DTX4 (GeneID 23220)?
mean correlation with KSR1 profile: -0.608

For QRICH2 (GeneID 84074), what does the deposit list?
mean correlation with KSR1 profile: 0.77

For NSRP1 (GeneID 84081), what does the deposit list?
mean correlation with KSR1 profile: 0.238

What is on record for PNKP (GeneID 11284)?
mean correlation with KSR1 profile: 0.642

For ERBB3 (GeneID 2065), what does the deposit list?
mean correlation with KSR1 profile: 0.28

For RACGAP1 (GeneID 29127), what does the deposit list?
mean correlation with KSR1 profile: -0.166

Which result is listed for MESP1 (GeneID 55897)?
mean correlation with KSR1 profile: 0.345

For TRPV6 (GeneID 55503), how do the results read?
mean correlation with KSR1 profile: -0.108

For GBA1 (GeneID 2629), how do the results read?
mean correlation with KSR1 profile: -0.439

Quoted from above (2 entries):
TRPV6 (GeneID 55503): mean correlation with KSR1 profile = -0.108
GBA1 (GeneID 2629): mean correlation with KSR1 profile = -0.439
